Results from paper PMC9670204.
Results are given in words; binding and its absence hold for the method and conditions named. Binding seen in cells or lysates may run through a third protein. Some entries that bind do so weakly or less than the wild type.

Chains of the proteins cited; added tags and fusions are not shown.
UniProt Q9GZU1: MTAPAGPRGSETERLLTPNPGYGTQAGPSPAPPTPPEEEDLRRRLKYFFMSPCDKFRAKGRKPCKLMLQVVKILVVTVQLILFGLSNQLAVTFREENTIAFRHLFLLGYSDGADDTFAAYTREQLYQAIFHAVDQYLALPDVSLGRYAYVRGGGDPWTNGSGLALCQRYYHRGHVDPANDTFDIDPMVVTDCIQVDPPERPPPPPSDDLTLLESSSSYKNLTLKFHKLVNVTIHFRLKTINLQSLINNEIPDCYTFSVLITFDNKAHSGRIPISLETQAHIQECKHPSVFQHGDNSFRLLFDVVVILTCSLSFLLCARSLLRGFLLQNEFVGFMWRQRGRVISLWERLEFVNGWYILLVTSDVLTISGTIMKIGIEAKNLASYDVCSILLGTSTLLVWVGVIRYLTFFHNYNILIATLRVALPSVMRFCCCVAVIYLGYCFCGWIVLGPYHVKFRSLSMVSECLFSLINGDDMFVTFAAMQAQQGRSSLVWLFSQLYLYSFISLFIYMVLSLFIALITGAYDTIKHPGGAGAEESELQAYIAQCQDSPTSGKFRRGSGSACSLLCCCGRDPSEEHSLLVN
UniProt Q86T03: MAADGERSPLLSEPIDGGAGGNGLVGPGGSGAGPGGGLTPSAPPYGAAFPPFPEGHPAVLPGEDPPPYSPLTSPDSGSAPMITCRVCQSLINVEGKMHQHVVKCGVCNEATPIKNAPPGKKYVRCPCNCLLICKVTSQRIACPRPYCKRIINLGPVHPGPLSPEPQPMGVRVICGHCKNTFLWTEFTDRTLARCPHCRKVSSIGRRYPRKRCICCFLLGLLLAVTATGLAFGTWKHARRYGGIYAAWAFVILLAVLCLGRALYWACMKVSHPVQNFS
UniProt O75340: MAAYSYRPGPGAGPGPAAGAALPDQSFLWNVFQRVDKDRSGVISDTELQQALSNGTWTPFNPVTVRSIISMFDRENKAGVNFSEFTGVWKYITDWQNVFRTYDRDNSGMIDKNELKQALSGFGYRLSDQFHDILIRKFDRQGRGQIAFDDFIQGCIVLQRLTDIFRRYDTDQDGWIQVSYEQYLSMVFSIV

Assays:
TRPML1‐mCherry [1] = target: TRPML1‐mCherry (UniProt Q9GZU1); assay: co-IP; lysate of TRPML1‐mCherry stably expressing SH‐SY5Y cells transfected with GFP or GFP‐ALG2, treated with acrolein 2 h; anti‐RFP magnetic beads, 2 h at 4°C; 20 mM Tris–HCl pH 8.0, 150 mM NaCl, 1 mM CaCl2, 10% glycerol, 1% dodecyl maltoside, 0.2% deoxycholic acid
TMEM55B‐myc‐DDK = TMEM55B‐myc‐DDK (UniProt Q86T03); assay: co-IP; lysate of cells transfected with TMEM55B‐myc‐DDK, untreated or treated with 40 μM acrolein 2 h or 50 μM spm 4 h; anti‐flag M2 magnetic beads, 2 h at 4°C; 50 mM Hepes‐KOH pH 7.5, 300 mM KCl, 1 mM MgCl2, 1 mM EGTA, 10% glycerol, 1% Triton X‐100; blot for JIP4
TRPML1‐mCherry [2] = target: TRPML1‐mCherry (UniProt Q9GZU1); assay: co-IP; immunoprecipitation assays told only in the discussion; bait, constructs and conditions not stated

Molecule: GFP‐ALG2 (from UniProt O75340 1-191)
- binding (TRPML1‐mCherry [1]): binds

B1: JNK‐interacting protein 4 (JIP4), endogenous (protein, UniProt O60271 1-1321)
chain: MELEDGVVYQEEPGGSGAVMSERVSGLAGSIYREFERLIGRYDEEVVKELMPLVVAVLENLDSVFAQDQEHQVELELLRDDNEQLITQYEREKALRKHAEEKFIEFEDSQEQEKKDLQTRVESLESQTRQLELKAKNYADQISRLEEREAELKKEYNALHQRHTEMIHNYMEHLERTKLHQLSGSDQLESTAHSRIRKERPISLGIFPLPAGDGLLTPDAQKGGETPGSEQWKFQELSQPRSHTSLKVSNSPEPQKAVEQEDELSDVSQGGSKATTPASTANSDVATIPTDTPLKEENEGFVKVTDAPNKSEISKHIEVQVAQETRNVSTGSAENEEKSEVQAIIESTPELDMDKDLSGYKGSSTPTKGIENKAFDRNTESLFEELSSAGSGLIGDVDEGADLLGMGREVENLILENTQLLETKNALNIVKNDLIAKVDELTCEKDVLQGELEAVKQAKLKLEEKNRELEEELRKARAEAEDARQKAKDDDDSDIPTAQRKRFTRVEMARVLMERNQYKERLMELQEAVRWTEMIRASRENPAMQEKKRSSIWQFFSRLFSSSSNTTKKPEPPVNLKYNAPTSHVTPSVKKRSSTLSQLPGDKSKAFDFLSEETEASLASRREQKREQYRQVKAHVQKEDGRVQAFGWSLPQKYKQVTNGQGENKMKNLPVPVYLRPLDEKDTSMKLWCAVGVNLSGGKTRDGGSVVGASVFYKDVAGLDTEGSKQRSASQSSLDKLDQELKEQQKELKNQEELSSLVWICTSTHSATKVLIIDAVQPGNILDSFTVCNSHVLCIASVPGARETDYPAGEDLSESGQVDKASLCGSMTSNSSAETDSLLGGITVVGCSAEGVTGAATSPSTNGASPVMDKPPEMEAENSEVDENVPTAEEATEATEGNAGSAEDTVDISQTGVYTEHVFTDPLGVQIPEDLSPVYQSSNDSDAYKDQISVLPNEQDLVREEAQKMSSLLPTMWLGAQNGCLYVHSSVAQWRKCLHSIKLKDSILSIVHVKGIVLVALADGTLAIFHRGVDGQWDLSNYHLLDLGRPHHSIRCMTVVHDKVWCGYRNKIYVVQPKAMKIEKSFDAHPRKESQVRQLAWVGDGVWVSIRLDSTLRLYHAHTYQHLQDVDIEPYVSKMLGTGKLGFSFVRITALMVSCNRLWVGTGNGVIISIPLTETNKTSGVPGNRPGSVIRVYGDENSDKVTPGTFIPYCSMAHAQLCFHGHRDAVKFFVAVPGQVISPQSSSSGTDLTGDKAGPSAQEPGSQTPLKSMLVISGGEGYIDFRMGDEGGESELLGEDLPLEPSVTKAERSHLIVWQVMYGNE
- binding (TMEM55B‐myc‐DDK): binds

B2: phosphorylated JIP4 (T217) (protein, UniProt O60271 1-1321)
chain: MELEDGVVYQEEPGGSGAVMSERVSGLAGSIYREFERLIGRYDEEVVKELMPLVVAVLENLDSVFAQDQEHQVELELLRDDNEQLITQYEREKALRKHAEEKFIEFEDSQEQEKKDLQTRVESLESQTRQLELKAKNYADQISRLEEREAELKKEYNALHQRHTEMIHNYMEHLERTKLHQLSGSDQLESTAHSRIRKERPISLGIFPLPAGDGLLTPDAQKGGETPGSEQWKFQELSQPRSHTSLKVSNSPEPQKAVEQEDELSDVSQGGSKATTPASTANSDVATIPTDTPLKEENEGFVKVTDAPNKSEISKHIEVQVAQETRNVSTGSAENEEKSEVQAIIESTPELDMDKDLSGYKGSSTPTKGIENKAFDRNTESLFEELSSAGSGLIGDVDEGADLLGMGREVENLILENTQLLETKNALNIVKNDLIAKVDELTCEKDVLQGELEAVKQAKLKLEEKNRELEEELRKARAEAEDARQKAKDDDDSDIPTAQRKRFTRVEMARVLMERNQYKERLMELQEAVRWTEMIRASRENPAMQEKKRSSIWQFFSRLFSSSSNTTKKPEPPVNLKYNAPTSHVTPSVKKRSSTLSQLPGDKSKAFDFLSEETEASLASRREQKREQYRQVKAHVQKEDGRVQAFGWSLPQKYKQVTNGQGENKMKNLPVPVYLRPLDEKDTSMKLWCAVGVNLSGGKTRDGGSVVGASVFYKDVAGLDTEGSKQRSASQSSLDKLDQELKEQQKELKNQEELSSLVWICTSTHSATKVLIIDAVQPGNILDSFTVCNSHVLCIASVPGARETDYPAGEDLSESGQVDKASLCGSMTSNSSAETDSLLGGITVVGCSAEGVTGAATSPSTNGASPVMDKPPEMEAENSEVDENVPTAEEATEATEGNAGSAEDTVDISQTGVYTEHVFTDPLGVQIPEDLSPVYQSSNDSDAYKDQISVLPNEQDLVREEAQKMSSLLPTMWLGAQNGCLYVHSSVAQWRKCLHSIKLKDSILSIVHVKGIVLVALADGTLAIFHRGVDGQWDLSNYHLLDLGRPHHSIRCMTVVHDKVWCGYRNKIYVVQPKAMKIEKSFDAHPRKESQVRQLAWVGDGVWVSIRLDSTLRLYHAHTYQHLQDVDIEPYVSKMLGTGKLGFSFVRITALMVSCNRLWVGTGNGVIISIPLTETNKTSGVPGNRPGSVIRVYGDENSDKVTPGTFIPYCSMAHAQLCFHGHRDAVKFFVAVPGQVISPQSSSSGTDLTGDKAGPSAQEPGSQTPLKSMLVISGGEGYIDFRMGDEGGESELLGEDLPLEPSVTKAERSHLIVWQVMYGNE
modifications: phosphorylated at T217
- binding (TRPML1‐mCherry [2]): no binding
